Assay results taken from the supplement of paper PMC12889115.
This is one part of the list. Values are raw readings; no control value is given beside them.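 In the initial screen, polymyxin B was used at a concentration that permeabilizes Salmonella's outer membrane but not its inner membrane. Maximum growth was set by DMSO wells with or without polymyxin B. Since plates varied, data were ranked per plate, and compounds giving the lowest OD600 advanced as hits.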

System: Salmonella enterica serovar Typhimurium SL1344
Experiment: bacterial growth OD600 after 18 h with compound and polymyxin B; higher = more bacterial growth (less inhibition)
Settings: 50 µM, Mueller-Hinton broth

CSc1ncc(CN(C)CC2CCN(CCc3cccc(F)c3)CC2)cn1
bacterial growth OD600 (polymyxin B 1 µg/mL): 0.935

COc1cccc(OCc2nc(C(=O)NC3CCCCC3)co2)c1
bacterial growth OD600 (polymyxin B 1 µg/mL): 0.939

O=C(NC1CCCC1)c1ccc(N2CCC(NCc3ccc(Cl)s3)CC2)cc1
bacterial growth OD600 (polymyxin B 0.75 µg/mL): 0.664

O=C(C1CCCN(Cc2ccco2)C1)N1CCc2[nH]nc(-c3ccccc3F)c2C1 (centres undefined)
bacterial growth OD600 (polymyxin B 0.75 µg/mL): 0.819

CC(NC(=O)c1csc2nc(-c3ccccc3)cn12)c1cnn(C)c1 (centres undefined)
bacterial growth OD600 (polymyxin B 1 µg/mL): 1.18

O=C(CCc1nnc(-c2ccc3c(c2)OCO3)o1)N1CCCCCCC1
bacterial growth OD600 (polymyxin B 0.75 µg/mL): 0.964

c1cncc(-c2ncc3c(n2)CCCC3NC2CCOCC2)c1 (centres undefined)
bacterial growth OD600 (polymyxin B 1 µg/mL): 0.767

COC(=O)[C@@H]1CCCN1C(=O)Cc1ccc(N2CCC(NCCc3ccco3)CC2)cc1
bacterial growth OD600 (polymyxin B 0.75 µg/mL): 0.877

COc1ccccc1OCC(=O)NCC1CCCN(C(=O)c2ccccc2SC)C1 (centres undefined)
bacterial growth OD600 (polymyxin B 1 µg/mL): 0.953
